Data published in PMC3245282.
These are yes or no findings as the source states them, for the method shown. Binding seen in cells or lysates may run through a third protein. Some binding calls cover weakened binding; strength is not graded here. Tags and fused reporters may be left off the sequences shown.

Sequences of proteins named here, by UniProt entry; tags and fusion partners are left off.
UniProt P02994: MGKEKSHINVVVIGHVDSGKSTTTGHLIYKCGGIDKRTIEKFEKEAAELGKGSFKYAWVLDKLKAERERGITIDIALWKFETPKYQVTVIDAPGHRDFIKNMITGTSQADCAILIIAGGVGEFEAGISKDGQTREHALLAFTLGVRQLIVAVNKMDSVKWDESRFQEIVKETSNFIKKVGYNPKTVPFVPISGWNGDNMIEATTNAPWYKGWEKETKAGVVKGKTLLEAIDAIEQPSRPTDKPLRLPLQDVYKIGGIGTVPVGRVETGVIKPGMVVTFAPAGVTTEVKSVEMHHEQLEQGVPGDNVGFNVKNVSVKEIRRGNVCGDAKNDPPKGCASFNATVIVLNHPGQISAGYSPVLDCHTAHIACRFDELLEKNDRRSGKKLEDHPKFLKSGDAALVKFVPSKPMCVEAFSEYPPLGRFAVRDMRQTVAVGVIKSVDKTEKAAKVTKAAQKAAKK

Target: T1, His-tagged yeast eEF1Bα (guanine nucleotide exchange factor of eEF1A) (yeast) (UniProt P32471)
T1 sequence: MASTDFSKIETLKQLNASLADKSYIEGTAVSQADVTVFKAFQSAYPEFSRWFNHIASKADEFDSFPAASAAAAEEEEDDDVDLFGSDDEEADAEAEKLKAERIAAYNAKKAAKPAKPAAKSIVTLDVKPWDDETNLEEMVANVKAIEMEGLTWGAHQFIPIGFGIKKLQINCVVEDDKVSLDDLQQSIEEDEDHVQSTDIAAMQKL
Assay: pull-down; only the target purified

binding: binds
Substance: yeast eukaryotic elongation factor 1A (eEF1A), native (from UniProt P02994 1-458)
